Measurements taken from the supplement of paper PMC10849652.
The other results are listed elsewhere or left out.

Amino acid sequences for entries named in this document (tags omitted). A change or cut given only in a name is not applied to a line headed by its entry.
UniProt Q96EA4: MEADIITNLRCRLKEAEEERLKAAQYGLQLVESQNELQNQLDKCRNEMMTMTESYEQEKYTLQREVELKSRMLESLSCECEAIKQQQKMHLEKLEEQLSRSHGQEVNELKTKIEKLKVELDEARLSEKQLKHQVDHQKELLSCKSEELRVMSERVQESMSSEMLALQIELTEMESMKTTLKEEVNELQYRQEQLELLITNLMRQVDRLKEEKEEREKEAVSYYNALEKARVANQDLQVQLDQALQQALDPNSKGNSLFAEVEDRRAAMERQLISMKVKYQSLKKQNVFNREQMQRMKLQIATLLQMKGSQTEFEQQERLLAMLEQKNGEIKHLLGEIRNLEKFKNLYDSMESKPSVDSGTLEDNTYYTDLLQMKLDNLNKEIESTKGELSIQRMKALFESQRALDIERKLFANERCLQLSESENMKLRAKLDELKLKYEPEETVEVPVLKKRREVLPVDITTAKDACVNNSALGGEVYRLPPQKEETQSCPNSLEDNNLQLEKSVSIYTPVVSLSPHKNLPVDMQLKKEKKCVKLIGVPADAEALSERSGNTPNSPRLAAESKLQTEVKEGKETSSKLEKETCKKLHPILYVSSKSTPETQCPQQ
UniProt P52630: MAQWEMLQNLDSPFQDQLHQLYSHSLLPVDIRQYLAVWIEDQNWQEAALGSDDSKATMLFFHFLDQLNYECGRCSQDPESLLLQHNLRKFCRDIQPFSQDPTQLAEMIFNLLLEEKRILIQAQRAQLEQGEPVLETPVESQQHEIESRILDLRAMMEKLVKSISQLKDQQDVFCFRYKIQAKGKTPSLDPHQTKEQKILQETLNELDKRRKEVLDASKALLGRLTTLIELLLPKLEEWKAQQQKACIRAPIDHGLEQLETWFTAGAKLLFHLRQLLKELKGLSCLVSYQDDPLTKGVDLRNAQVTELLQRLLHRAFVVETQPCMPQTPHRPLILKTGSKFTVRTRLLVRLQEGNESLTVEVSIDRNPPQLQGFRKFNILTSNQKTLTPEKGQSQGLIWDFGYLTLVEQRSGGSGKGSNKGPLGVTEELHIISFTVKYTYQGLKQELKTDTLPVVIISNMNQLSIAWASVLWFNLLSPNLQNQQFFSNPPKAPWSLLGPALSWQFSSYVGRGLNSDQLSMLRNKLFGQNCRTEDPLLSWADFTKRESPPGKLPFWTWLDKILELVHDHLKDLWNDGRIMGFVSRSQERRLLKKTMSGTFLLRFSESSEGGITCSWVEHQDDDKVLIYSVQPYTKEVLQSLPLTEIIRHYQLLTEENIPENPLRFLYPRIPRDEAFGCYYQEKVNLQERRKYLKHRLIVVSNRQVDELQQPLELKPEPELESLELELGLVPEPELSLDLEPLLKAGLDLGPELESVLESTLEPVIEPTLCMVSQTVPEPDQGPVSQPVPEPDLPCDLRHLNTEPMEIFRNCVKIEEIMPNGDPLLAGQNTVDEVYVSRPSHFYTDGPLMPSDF
UniProt P11831: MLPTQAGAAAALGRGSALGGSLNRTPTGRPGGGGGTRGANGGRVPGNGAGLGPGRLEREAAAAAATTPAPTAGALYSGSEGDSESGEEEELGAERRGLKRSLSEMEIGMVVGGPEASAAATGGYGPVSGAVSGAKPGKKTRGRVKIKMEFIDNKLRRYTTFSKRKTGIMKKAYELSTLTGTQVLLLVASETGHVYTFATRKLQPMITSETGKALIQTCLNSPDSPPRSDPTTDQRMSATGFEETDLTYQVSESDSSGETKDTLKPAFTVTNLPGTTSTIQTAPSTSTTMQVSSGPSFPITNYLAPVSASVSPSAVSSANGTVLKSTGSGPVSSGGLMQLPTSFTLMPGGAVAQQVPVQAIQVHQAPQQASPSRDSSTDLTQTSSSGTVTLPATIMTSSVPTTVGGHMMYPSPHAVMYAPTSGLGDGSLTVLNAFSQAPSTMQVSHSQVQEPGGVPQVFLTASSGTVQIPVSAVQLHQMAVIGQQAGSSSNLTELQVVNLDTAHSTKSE
UniProt P35270: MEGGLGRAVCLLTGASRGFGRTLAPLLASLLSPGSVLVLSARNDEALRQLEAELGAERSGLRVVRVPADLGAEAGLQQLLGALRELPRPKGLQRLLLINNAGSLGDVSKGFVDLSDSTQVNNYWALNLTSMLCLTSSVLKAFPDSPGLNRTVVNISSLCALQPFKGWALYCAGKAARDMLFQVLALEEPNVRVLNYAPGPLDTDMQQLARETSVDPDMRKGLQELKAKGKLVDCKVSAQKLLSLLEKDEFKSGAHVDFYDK
UniProt Q15468: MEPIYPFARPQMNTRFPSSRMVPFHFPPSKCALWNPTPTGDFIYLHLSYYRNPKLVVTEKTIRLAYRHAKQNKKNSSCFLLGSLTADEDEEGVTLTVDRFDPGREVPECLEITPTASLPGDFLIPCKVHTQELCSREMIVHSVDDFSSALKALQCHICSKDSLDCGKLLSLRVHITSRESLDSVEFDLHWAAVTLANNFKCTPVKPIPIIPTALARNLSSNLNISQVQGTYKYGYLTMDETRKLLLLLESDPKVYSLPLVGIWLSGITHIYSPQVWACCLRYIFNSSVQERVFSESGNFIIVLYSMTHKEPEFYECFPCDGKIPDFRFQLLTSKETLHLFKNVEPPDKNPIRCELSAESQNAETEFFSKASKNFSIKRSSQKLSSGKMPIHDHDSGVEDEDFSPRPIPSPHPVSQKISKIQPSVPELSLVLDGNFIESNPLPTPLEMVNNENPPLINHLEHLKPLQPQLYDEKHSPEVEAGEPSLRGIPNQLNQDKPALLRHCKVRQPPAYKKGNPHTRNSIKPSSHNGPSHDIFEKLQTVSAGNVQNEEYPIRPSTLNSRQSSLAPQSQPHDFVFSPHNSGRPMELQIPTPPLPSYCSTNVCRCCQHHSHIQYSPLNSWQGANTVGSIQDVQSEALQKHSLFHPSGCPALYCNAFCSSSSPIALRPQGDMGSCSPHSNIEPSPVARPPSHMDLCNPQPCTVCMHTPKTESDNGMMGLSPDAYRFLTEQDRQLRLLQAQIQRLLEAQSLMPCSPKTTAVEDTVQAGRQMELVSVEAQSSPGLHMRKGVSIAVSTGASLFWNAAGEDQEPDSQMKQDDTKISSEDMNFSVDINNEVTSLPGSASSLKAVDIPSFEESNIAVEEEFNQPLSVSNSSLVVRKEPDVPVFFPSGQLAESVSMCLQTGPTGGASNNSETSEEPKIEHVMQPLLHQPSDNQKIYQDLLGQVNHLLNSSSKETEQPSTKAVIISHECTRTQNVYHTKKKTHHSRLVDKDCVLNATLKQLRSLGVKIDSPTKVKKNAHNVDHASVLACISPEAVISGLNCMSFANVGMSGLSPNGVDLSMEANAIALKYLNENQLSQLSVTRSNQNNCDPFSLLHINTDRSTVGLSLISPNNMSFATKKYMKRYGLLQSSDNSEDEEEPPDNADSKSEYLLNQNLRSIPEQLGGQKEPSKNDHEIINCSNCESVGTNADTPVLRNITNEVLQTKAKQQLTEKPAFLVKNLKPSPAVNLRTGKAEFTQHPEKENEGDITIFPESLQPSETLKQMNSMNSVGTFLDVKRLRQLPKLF
UniProt Q9GZT4: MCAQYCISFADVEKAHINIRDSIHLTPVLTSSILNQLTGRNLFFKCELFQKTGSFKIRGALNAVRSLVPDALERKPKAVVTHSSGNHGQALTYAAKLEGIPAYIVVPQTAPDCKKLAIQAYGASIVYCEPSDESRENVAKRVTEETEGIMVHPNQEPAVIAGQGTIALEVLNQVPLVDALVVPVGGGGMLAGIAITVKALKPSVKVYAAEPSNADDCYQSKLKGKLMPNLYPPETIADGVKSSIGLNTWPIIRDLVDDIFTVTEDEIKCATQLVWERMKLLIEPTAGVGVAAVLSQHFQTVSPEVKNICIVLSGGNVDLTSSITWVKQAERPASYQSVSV
UniProt Q8N0X7: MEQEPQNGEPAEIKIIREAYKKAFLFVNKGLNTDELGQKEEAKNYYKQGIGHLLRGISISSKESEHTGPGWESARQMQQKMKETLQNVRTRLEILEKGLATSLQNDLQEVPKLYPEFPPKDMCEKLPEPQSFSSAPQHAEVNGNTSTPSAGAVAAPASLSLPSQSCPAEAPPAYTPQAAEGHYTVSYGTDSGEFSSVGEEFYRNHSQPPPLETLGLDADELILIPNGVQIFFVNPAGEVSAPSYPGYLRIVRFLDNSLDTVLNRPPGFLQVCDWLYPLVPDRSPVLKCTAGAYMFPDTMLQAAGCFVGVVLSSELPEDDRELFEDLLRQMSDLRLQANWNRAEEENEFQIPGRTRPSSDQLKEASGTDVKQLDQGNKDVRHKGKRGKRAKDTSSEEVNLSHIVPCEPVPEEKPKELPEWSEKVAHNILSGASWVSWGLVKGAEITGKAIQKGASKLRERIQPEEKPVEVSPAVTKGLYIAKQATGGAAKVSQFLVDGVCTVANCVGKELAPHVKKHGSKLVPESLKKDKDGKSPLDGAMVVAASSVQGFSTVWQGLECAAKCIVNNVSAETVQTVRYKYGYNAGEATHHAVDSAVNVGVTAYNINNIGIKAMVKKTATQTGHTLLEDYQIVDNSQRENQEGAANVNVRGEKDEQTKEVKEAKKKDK
UniProt Q9BWW4: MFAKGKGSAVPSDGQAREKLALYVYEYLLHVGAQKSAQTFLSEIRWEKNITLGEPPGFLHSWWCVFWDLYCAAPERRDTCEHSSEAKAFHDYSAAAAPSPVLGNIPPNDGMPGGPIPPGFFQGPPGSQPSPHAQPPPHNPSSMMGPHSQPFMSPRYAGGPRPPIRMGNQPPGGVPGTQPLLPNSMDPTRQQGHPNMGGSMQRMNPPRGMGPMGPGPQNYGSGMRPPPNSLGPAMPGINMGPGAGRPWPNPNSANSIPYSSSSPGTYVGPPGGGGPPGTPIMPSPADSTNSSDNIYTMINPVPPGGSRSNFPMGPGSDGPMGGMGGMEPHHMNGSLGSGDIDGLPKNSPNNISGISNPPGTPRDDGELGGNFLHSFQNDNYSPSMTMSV
UniProt O76094: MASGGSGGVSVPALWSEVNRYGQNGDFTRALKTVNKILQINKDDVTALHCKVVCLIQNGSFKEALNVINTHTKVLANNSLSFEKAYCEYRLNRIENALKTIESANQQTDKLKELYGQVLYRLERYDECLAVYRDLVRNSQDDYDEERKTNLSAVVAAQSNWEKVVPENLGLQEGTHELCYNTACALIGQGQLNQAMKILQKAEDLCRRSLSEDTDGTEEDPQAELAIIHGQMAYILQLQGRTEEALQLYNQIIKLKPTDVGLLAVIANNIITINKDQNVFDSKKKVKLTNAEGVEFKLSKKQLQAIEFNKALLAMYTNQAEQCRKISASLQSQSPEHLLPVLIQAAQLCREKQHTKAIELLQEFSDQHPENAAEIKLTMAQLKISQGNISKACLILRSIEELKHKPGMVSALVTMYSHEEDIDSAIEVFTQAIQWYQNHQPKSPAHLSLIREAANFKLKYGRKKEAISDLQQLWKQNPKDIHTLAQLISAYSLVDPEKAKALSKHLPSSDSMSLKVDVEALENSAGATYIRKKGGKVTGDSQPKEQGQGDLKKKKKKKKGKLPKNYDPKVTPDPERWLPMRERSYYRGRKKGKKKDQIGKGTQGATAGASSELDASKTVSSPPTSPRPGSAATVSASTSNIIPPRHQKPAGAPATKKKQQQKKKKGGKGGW
UniProt Q04837: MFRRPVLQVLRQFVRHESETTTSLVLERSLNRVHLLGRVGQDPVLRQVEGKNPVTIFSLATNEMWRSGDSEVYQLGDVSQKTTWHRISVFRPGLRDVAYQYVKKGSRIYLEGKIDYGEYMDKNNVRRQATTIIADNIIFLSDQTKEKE

Columns and labels:
Test in all cases: log2 fold change, soluble protein after heating vs DMSO (PISA); higher = thermal stabilisation; K562 lysate, 10 uM; active = over 0.2 and 3.5 SD of the protein, either way, in both replicates (recomputed)
nilotinib = compound: Cc1cn(-c2cc(NC(=O)c3ccc(C)c(Nc4nccc(-c5cccnc5)n4)c3)cc(C(F)(F)F)c2)cn1 [nilotinib]
Method in brief: (§1)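 Pellets of K562 cells were dounce-homogenised in PBS pH 7.4 with 1 mM MgCl2, and the crude extract was held at 1 mg/mL protein for a 30 min treatment with 10 μM compound. Aliquots were heated for 3 min over 48°C-58°C and pooled before NP-40 was added to 0.5% at 4°C. The supernatant from 21,000xg for 90 min was quantified by TMTpro 16plex LC-MS/MS with channel sums equalised. Values are reported from duplicates as log-two fold change in thermal stability relative to solvent controls.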

[1] = compound: Cc1nc(Nc2n[nH]c3c2CN(C(=O)N[C@H](CN(C)C)c2ccccc2)C3(C)C)c2sccc2n1
Method in brief: as §1

dasatinib = compound: Cc1nc(Nc2ncc(C(=O)Nc3c(C)cccc3Cl)s2)cc(N2CCN(CCO)CC2)n1 [dasatinib]
Method in brief: as §1

[2] = compound: Cc1ncc(-c2ccnc(Nc3ccc(S(C)(=O)=O)cc3)n2)n1C(C)C
Method in brief: as §1

[3] = compound: Cn1cc(-c2ccc3c(c2)CCN3C(=O)Cc2cccc(C(F)(F)F)c2)c2c(N)ncnc21
Method in brief: as §1

quisinostat = compound: Cn1cc(CNCC2CCN(c3ncc(C(=O)NO)cn3)CC2)c2ccccc21 [quisinostat]
Method in brief: as §1

tipifarnib = compound: Cn1cncc1[C@@](N)(c1ccc(Cl)cc1)c1ccc2c(c1)c(-c1cccc(Cl)c1)cc(=O)n2C [tipifarnib]
Method in brief: as §1

[4] = compound: NC(=O)Nc1cc(-c2cccc(F)c2)sc1C(=O)N[C@H]1CCCNC1
Method in brief: as §1

[5] = compound: NC(=O)c1cnc(N[C@@H]2CCCC[C@@H]2N)nc1Nc1cccc(-n2nccn2)c1
Method in brief: as §1

[6] = compound: NC1(c2ccc(-c3nc4ccn5c(=O)[nH]nc5c4cc3-c3ccccc3)cc2)CCC1
Method in brief: as §1

[7] = compound: NCC(=O)Nc1ccc(-n2nc(C(F)(F)F)cc2-c2ccc3c(ccc4ccccc43)c2)cc1
Method in brief: as §1

vorinostat = compound: O=C(CCCCCCC(=O)Nc1ccccc1)NO [vorinostat]
Method in brief: as §1

silmitasertib = compound: O=C(O)c1ccc2c(c1)nc(Nc1cccc(Cl)c1)c1ccncc12 [silmitasertib]
Method in brief: as §1

[8] = compound: O=C1NC(=O)C(c2cnc3ccccn23)=C1c1cn2c3c(cc(F)cc13)CN(C(=O)N1CCCCC1)CC2
Method in brief: as §1

entospletinib = compound: c1cn2cc(-c3ccc4cn[nH]c4c3)nc(Nc3ccc(N4CCOCC4)cc3)c2n1 [entospletinib]
Method in brief: as §1

Target | log2 fold change (nilotinib) | log2 fold change [1] | log2 fold change (dasatinib) | log2 fold change [2] | log2 fold change [3] | log2 fold change (quisinostat) | log2 fold change (tipifarnib) | log2 fold change [4] | log2 fold change [5] | log2 fold change [6] | log2 fold change [7] | log2 fold change (vorinostat) | log2 fold change (silmitasertib) | log2 fold change [8] | log2 fold change (entospletinib)
SPDL1 (UniProt Q96EA4) | inactive: 0.021 | inactive: -0.026 | inactive: 0.076 | inactive: 0.022 | inactive: 0.01 | inactive: 0.037 | inactive: 0.02 | inactive: -0.018 | inactive: -0.007 | inactive: -0.045 | inactive: -0.004 | inactive: -0.077 | inactive: -0.012 | inactive: 0.034 | inactive: 0.004
STAT2 (UniProt P52630) | inactive: -0.017 | inactive: 0.006 | inactive: -0.024 | inactive: -0.086 | inactive: 0.025 | inactive: -0.117 | inactive: -0.024 | inactive: 0.054 | inactive: 0.016 | inactive: -0.016 | inactive: -0.018 | active: -0.254 | inactive: 0.063 | inactive: -0.017 | inactive: 0.011
SRF (UniProt P11831) | inactive: -0.15 | inactive: 0.091 | inactive: -0.023 | inactive: -0.058 | inactive: 0.047 | inactive: -0.064 | inactive: -0.062 | inactive: -0.019 | inactive: -0.004 | inactive: -0.029 | inactive: -0.008 | inactive: -0.008 | inactive: -0.054 | inactive: 0.028 | inactive: -0.072
SPR (UniProt P35270) | inactive: -0.063 | inactive: 0.01 | inactive: 0.201 | inactive: 0.012 | inactive: 0.075 | inactive: 0.077 | inactive: 0.035 | inactive: 0.01 | inactive: 0.02 | inactive: 0.009 | inactive: -0.037 | inactive: -0.199 | inactive: 0.308 | inactive: 0.219 | inactive: 0.003
STIL isoform 2 (UniProt Q15468) | inactive: 0.023 | inactive: 0 | inactive: -0.043 | inactive: -0.012 | inactive: 0.018 | inactive: -0.092 | inactive: 0 | inactive: 0.057 | inactive: -0.047 | inactive: 0.005 | inactive: -0.002 | inactive: -0.168 | inactive: 0.015 | inactive: 0.001 | inactive: 0.014
SRR (UniProt Q9GZT4) | inactive: -0.094 | inactive: -0.119 | inactive: 0.019 | inactive: 0.081 | inactive: -0.148 | inactive: -0.049 | inactive: 0.047 | inactive: -0.111 | inactive: -0.075 | inactive: -0.072 | inactive: -0.044 | inactive: -0.063 | inactive: 0.012 | inactive: -0.083 | inactive: -0.017
SPART (UniProt Q8N0X7) | inactive: 0.032 | inactive: 0.029 | inactive: 0.009 | inactive: 0.021 | inactive: -0.027 | inactive: 0.093 | inactive: -0.12 | inactive: 0.005 | inactive: -0.022 | inactive: 0.018 | inactive: 0.021 | inactive: -0.126 | inactive: -0.029 | inactive: -0.019 | inactive: -0.031
SSBP3 (UniProt Q9BWW4) | inactive: -0.005 | inactive: 0.061 | inactive: -0.015 | inactive: 0.014 | inactive: 0.016 | inactive: 0.018 | inactive: 0.028 | inactive: -0.035 | inactive: -0.029 | inactive: -0.097 | inactive: -0.085 | inactive: 0.061 | inactive: -0.005 | inactive: 0.088 | inactive: 0.009
SRP72 (UniProt O76094) | inactive: 0.018 | inactive: 0.009 | inactive: -0.034 | inactive: -0.003 | inactive: 0.029 | inactive: -0.015 | inactive: 0.004 | inactive: -0.022 | inactive: -0.008 | inactive: -0.036 | inactive: 0.008 | inactive: -0.231 | inactive: 0.001 | inactive: 0.005 | inactive: 0.04
SSBP1 (UniProt Q04837) | inactive: 0.005 | inactive: 0.007 | inactive: 0.023 | inactive: 0.003 | inactive: -0.001 | inactive: -0.043 | inactive: -0.002 | inactive: 0.011 | inactive: 0.017 | inactive: 0.02 | inactive: 0.025 | inactive: 0.146 | inactive: -0.023 | inactive: -0.013 | inactive: 0.014
